In PubChem BioAssay AID2685 (National Center for Advancing Translational Sciences (NCATS), 2010):
The other results are listed elsewhere or left out. These are further read-outs of the screen, such as a control signal, another cell line or another target. No call is given for them. Compounds called inactive in the main read-out are mostly missing here. Words in brackets tell the shape of the fitted curve; partial curves, single points and poor fits give uncertain potencies.

Experiment: qHTS Assay for Lipid Storage Modulators in Drosophila S3 Cells;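 for cell number change: cells counted by Cell Tracker Red CMTPX staining in the red channel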
Details: BODIPY lipid droplet fluorescence, 18-24 h; for cell number change: measured here: cell count max response, cells fed with added oleic acid
Outline: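 Laser-scanning cytometry quantifies lipid droplet accumulation (500–530 nm total intensity; droplet/cell object ratio) in oleic acid-fed (400 uM added) Drosophila S3 cells treated with a concentration series. 20 uM Triacsin C defined 100% inhibition.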

[1] = measured here: lipid fluorescence (Fed channel) AC50, cells fed with added oleic acid
[2] = measured here: cell number channel AC50, cells fed with added oleic acid

Row | SMILES | cell number change [%] | AC50 [1] | AC50 [2]
1 | COc1cccc(S(=O)(=O)c2nc(C)c3c(n2)CCC3)c1 | -27.6 | 29100 nM [falling, single point] | –
2 | COC(=O)c1ccc(CNC(=O)N2CCN(S(=O)(=O)c3ccc(C)cc3)CC2)cc1 | 17.9 | 146 nM [rising, partial curve, poor fit] | 65.1 nM [rising, full curve, poor fit]
3 | CCOC(=O)N1CCC(n2c(SCC(=O)NCc3ccco3)nc3ccsc3c2=O)CC1 | 196 | 1160 nM [rising, full curve] | 1840 nM [rising, partial curve]
4 | CC(C)Cc1nc(N2CCC(C(N)=O)CC2)c2nnn(Cc3ccccc3)c2n1 | – | 103 nM [rising, single point] | –
5 | Cc1sc2ncnc(N3CCC(C(=O)Nc4cc(S(C)(=O)=O)ccc4Cl)CC3)c2c1C | 69.9 | – | 14600 nM [rising, partial curve]
6 | Cc1ccc(C(C)n2cc(C(=O)NCCN3CCN(C)CC3)nn2)cc1 (configuration not stated) | -86.6 | 18400 nM [falling, single point] | 18400 nM [falling, single point]
7 | CCOc1cc(C(=O)Nc2cc(C)ccc2OC)ccc1OCC(=O)N1CCCCC1 | 16.9 | 517 nM [rising, full curve] | –
8 | O=C(Nc1cccnc1)c1cc([N+](=O)[O-])ccc1Cl | 11.3 | 651 nM [falling, single point] | –
9 | CC(Sc1nnc(-c2ccco2)n1C)C(=O)Nc1ccc(N2CCOCC2)cc1 (configuration not stated) | -8.08 | – | 92 nM [falling, full curve, poor fit]
10 | Cc1ccc(Nc2nnc(SCC(=O)NCCN3C(=O)CSC3=O)s2)cc1 | -18.3 | 10300 nM [falling, single point] | –
11 | COc1cc(C(=O)OCCC(C)C)cc(OC)c1O | -13.4 | 6510 nM [rising, single point] | –
12 | CCOC(=O)N1CCN(C(=S)Nc2ccccc2C(C)C)CC1 | -10.5 | 820 nM [falling, single point] | –
13 | COc1ccc(C(=O)OCC(=O)Nc2ccc(OC)c(S(=O)(=O)N3CCCCC3)c2)cc1[N+](=O)[O-] | 23.3 | – | –
14 | COc1ccc(NC(=O)/C(=C/c2ccc3c(c2)OCO3)NC(C)=O)cc1 | 4.19 | – | –
15 | COc1ccc(CNC(=O)CSCc2cccc(Cl)c2)cc1 | 5.81 | 1160 nM [rising, full curve] | –
16 | CCOC(=O)Cn1c(=NC(=O)c2sc3ccccc3c2Cl)sc2cc(S(N)(=O)=O)ccc21 | 18.5 | 29100 nM [falling, single point] | 461 nM [rising, partial curve, poor fit]
17 | O=C(Nc1cccnc1Cl)c1ccc(S(=O)(=O)N2CCCCCC2)cc1 | 12.4 | 820 nM [falling, partial curve, poor fit] | 517 nM [falling, single point]
18 | Cc1ccc(CNC(=O)C2CCCN(S(=O)(=O)c3ccc(F)cc3)C2)cc1 (configuration not stated) | 22.5 | 29100 nM [rising, single point] | –
19 | Cc1ccc(-n2nc3c(=O)n(CCCC(=O)NCCc4ccccc4C)nc(C)c3c2C)cc1 | 11.8 | – | –
20 | CC(C)C(=O)N1CCN(c2ccc(NC(=O)c3ccc4c(c3)OCCO4)cc2)CC1 | 8.34 | 146 nM [falling, full curve, poor fit] | –

Row | SMILES | cell number change [%] | AC50 [1] | AC50 [2]
21 | COc1cc(NC(=O)CN2CCC(C(N)=O)(N3CCCCC3)CC2)c(OC)cc1Cl | -22.2 | 3660 nM [falling, partial curve, poor fit] | 103 nM [falling, full curve, poor fit]
22 | Nc1ncnc(Nc2ccccc2C(F)(F)F)n1 | 2.66 | 820 nM [falling, partial curve, poor fit] | –
23 | Cc1occc(=O)c1OC(=O)Nc1ccc(Cl)c(Cl)c1 | -50.3 | 20600 nM [falling, partial curve] | 20600 nM [falling, partial curve]
24 | CCOC(=O)N1CCN(C(=S)NC(=O)c2ccc(F)c(F)c2)CC1 | 2.47 | 1300 nM [falling, full curve] | –
25 | CCc1cccc(CC)c1-n1c(SCC(=O)c2c(N)n(C)c(=O)n(C)c2=O)nnc1-c1cccnc1 | 22.3 | – | 731 nM [falling, single point]
26 | CN(Cc1ccccc1)C(=O)c1nc[nH]c1C(=O)N1CCN(C(=O)OC(C)(C)C)CC1 | 15.5 | 820 nM [rising, full curve, poor fit] | –
27 | O=C(NCCCN1CCOCC1)c1cc2nc(-c3ccco3)cc(C(F)(F)F)n2n1 | 13.3 | – | –
28 | Cc1ccc(N(C(=O)Cn2nnc(-c3cccs3)n2)C(C(=O)NC2CCCC2)c2ccncc2)cc1 (configuration not stated) | 12.1 | 29100 nM [rising, single point] | –
29 | O=C(Nc1ccccc1F)c1cc(S(=O)(=O)N2CCOCC2)ccc1N1CCOCC1 | 31 | – | 16400 nM [rising, single point]
30 | CCCNC(=O)C1CNc2ccccc2O1 (configuration not stated) | 10.3 | 6510 nM [falling, single point] | –
31 | Cc1ccc(C2=NCCNC2=O)c(C)c1 | -32.8 | 14.6 nM [falling, full curve, poor fit] | 5.17 nM [falling, full curve, poor fit]
32 | O=C(Nc1cccc(C(=O)Nc2ccccc2F)c1)c1ccccc1 | 8.07 | 580 nM [rising, single point] | –
33 | CCCCOc1ccc(/C=C/C(=O)NCCc2nc3ccccc3[nH]2)cc1 | – | 20600 nM [falling, partial curve] | –
34 | CC(Cc1ccccc1)N/C=C1\CC(=O)NC1=O (configuration not stated) | -6.98 | 5170 nM [rising, single point] | 6510 nM [rising, single point]
35 | CCCN(C(=O)c1cccs1)c1nnc(-c2ccncc2)s1 | 1.22 | – | –
36 | CC(=O)Nc1ccc(S(=O)(=O)N2CCSC2c2ccco2)cc1 (configuration not stated) | -19.3 | 20600 nM [falling, partial curve] | –
37 | COc1ccc(NC(C)=O)cc1NC(=O)c1cccc(S(=O)(=O)N2CCN(Cc3ccccc3)CC2)c1 | 1.7 | – | 1640 nM [falling, partial curve]
38 | O=S(=O)(Cc1noc(-c2ccc(Cl)cc2)n1)Cc1ccco1 | 9.78 | 326 nM [falling, full curve] | 184 nM [falling, full curve]
39 | CC(C)CNC(=O)COC(=O)Cc1ccc(Cl)cc1 | -2.73 | – | –
40 | CC(C)c1nc2cc(Cl)ccc2n(Cc2ccccc2)c1=O | 22.2 | – | –

Row | SMILES | cell number change [%] | AC50 [1] | AC50 [2]
41 | CCOc1ccccc1Nc1nc2ccccc2n2cnnc12 | 20.4 | – | –
42 | Cc1ccc(C(=O)N/C(=C\c2cccs2)C(=O)N2CCOCC2)cc1C | 30.8 | – | 29100 nM [rising, single point]
43 | COc1ccc(/C=C2\N=C(C)OC2=O)cc1OC | -28.8 | – | –
44 | CC(C)(C)CN1CCNC[C@H]1Cc1cccc2ccccc12 | -88.1 | 5.17 nM [falling, full curve, poor fit] | 16400 nM [falling, partial curve]
45 | COc1cc(/C=C2\SC(=O)N(CC(=O)Nc3ccccc3F)C2=O)cc(Cl)c1O | -71.9 | 29100 nM [falling, single point] | 29100 nM [falling, single point]
46 | Cc1cccc(C)c1NC(=S)N1CC(C)OC(C)C1 (configuration not stated) | -14 | 5800 nM [falling, full curve, poor fit] | –
47 | CCOC(=O)C(=O)C1=C(N2CCOCC2)/C(=C\c2ccc(F)cc2)CC1 | -15.9 | 16400 nM [rising, partial curve] | –
48 | CCCCOC(=O)C1=C(C)NC(=O)NC1c1cc2c(cc1Br)OCO2 (configuration not stated) | -24.2 | 1640 nM [rising, partial curve] | –
49 | COc1ccc(OC)c2c(N)c(C#N)c(C(F)(F)C(F)(F)F)nc12 | – | 4110 nM [rising, partial curve] | 6510 nM [rising, single point]
50 | CC(=O)Nc1cccc(C(=O)N(CCc2ccccc2)Cc2ccccc2)c1 | 15.7 | – | –
51 | COc1cc(OC)cc(C(=O)Nc2ccc(-c3nc4ccccc4o3)c(O)c2)c1 | -28.5 | – | –
52 | COC(=O)c1ccc(NC(=O)c2ccc(NC(=O)c3ccco3)cc2)cc1 | -17.8 | 20600 nM [falling, single point] | –
53 | Cc1ccccc1N1CCN(C2CCCN(C(=O)c3ocnc3C)C2)CC1 (configuration not stated) | -0.867 | – | –
54 | O=C1CC(N2CCN(c3ccccn3)CC2)C(=O)N1c1ccc(Cl)cc1 (configuration not stated) | -3.64 | 580 nM [rising, partial curve, poor fit] | –
55 | CCCCNS(=O)(=O)c1ccc2c(c1)oc(=O)n2CC(=O)OCC | -18 | 3260 nM [falling, single point] | 3260 nM [falling, single point]
56 | COC(=O)CCCn1nc(NC(=O)c2ccco2)cc1C | 15.7 | – | –
57 | CCOc1cccc(N(C(=O)CNC(=O)c2ccco2)C(C(=O)NCC2CCCO2)c2ccccc2)c1 (configuration not stated) | -6.41 | – | 4110 nM [rising, partial curve, poor fit]
58 | CCc1cc2cc(C)c(C)cc2nc1SCC(=O)NNC(=O)c1ccco1 | -13.5 | 2310 nM [falling, partial curve] | –
59 | CC(=O)N1CCSc2ccc(S(=O)(=O)NCCc3ccc(C)cc3)cc21 | 1.7 | – | –
60 | COc1ccc(CCn2nnnc2C(C(C)C)N2CCN(c3ncccn3)CC2)cc1OC (configuration not stated) | -8.41 | 23.1 nM [rising, single point] | –

Structures above containing a CF3 group:
Row | SMILES | cell number change [%] | AC50 [1] | AC50 [2]
22 | Nc1ncnc(Nc2ccccc2C(F)(F)F)n1 | 2.66 | 820 nM [falling, partial curve, poor fit] | –
27 | O=C(NCCCN1CCOCC1)c1cc2nc(-c3ccco3)cc(C(F)(F)F)n2n1 | 13.3 | – | –
49 | COc1ccc(OC)c2c(N)c(C#N)c(C(F)(F)C(F)(F)F)nc12 | – | 4110 nM [rising, partial curve] | 6510 nM [rising, single point]
